PubChem BioAssay AID1259308 – NCATS – 2017
This is a random part of about 59,000 deposited reagents. About 1,510 of all reagents (2.6%) were called active. 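Calls use total luciferase alone and ignore viability, so some active siRNAs may act by altering cell number.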 Unmarked entries are inactive. Reagents against one gene are numbered here.

Screen: 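Knock-downs that increase output of a recombinant reporter protein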 (primary screen)
Cell system: human HEK293 embryonic kidney cells stably expressing firefly luciferase (HEK-CMV-Luc2-Hygro)
Knock-down reagent: single siRNA against human genes, 0.8 pmol siRNA per well
Duration: 72 h
Detection: 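Luciferase light (ONE-Glo) measured on one replicate plate set and viability (CellTiter-Glo) on the other, scaled to a negative control siRNA, with robust z-scores and luciferase per cell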
Reading the numbers: total luciferase, z-score and total luciferase, % of control: higher = more reporter protein produced; luciferase per cell, z-score: higher = more reporter output per viable cell; viable cells, % of control: higher = more viable cells
Hit rule: 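Active when the median/MAD z-score for overall luciferase is greater than 3; a gene was taken forward for validation with new siRNAs if at least two of its three siRNAs passed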
Meaning of the calls: active = raised luciferase; inactive = no rise

The opening 5 records as a preview:
target gene | reagent | total luciferase, z-score | total luciferase, % of control | luciferase per cell, z-score | viable cells, % of control
PANK3 (GeneID 79646) | 1 | -0.508 | 71.8 | -0.817 | 99.5
PANK3 (GeneID 79646) | 2 | 1.28 | 107 | 0.88 | 95.2
PANK3 (GeneID 79646) | 3 | -0.57 | 70.5 | -0.839 | 98.3
XG (GeneID 7499) | 1 | 1.73 | 116 | 1.45 | 88.8
XG (GeneID 7499) | 2 | -0.711 | 67.7 | -0.91 | 96.2

Results, from the first entry:
target gene | reagent | total luciferase, z-score | total luciferase, % of control | luciferase per cell, z-score | viable cells, % of control
PANK3 (GeneID 79646) | 1 | -0.508 | 71.8 | -0.817 | 99.5
PANK3 (GeneID 79646) | 2 | 1.28 | 107 | 0.88 | 95.2
PANK3 (GeneID 79646) | 3 | -0.57 | 70.5 | -0.839 | 98.3
XG (GeneID 7499) | 1 | 1.73 | 116 | 1.45 | 88.8
XG (GeneID 7499) | 2 | -0.711 | 67.7 | -0.91 | 96.2
XG (GeneID 7499) | 3 | 0.123 | 84.3 | 0.75 | 77.4
TRAF4 (GeneID 9618) | 1 | 3.25 (active) | 147 | 2.4 | 87
TRAF4 (GeneID 9618) | 2 | 1.21 | 106 | 1.5 | 79.7
TRAF4 (GeneID 9618) | 3 | 1.3 | 108 | 1.15 | 89
AK9 (GeneID 221264) | 1 | 0.464 | 91.1 | 0.0373 | 101
AK9 (GeneID 221264) | 2 | -1.66 | 48.9 | -1.2 | 75.1
AK9 (GeneID 221264) | 3 | -0.636 | 69.2 | -0.448 | 87.1
AK9 (GeneID 221264) | 4 | 0.387 | 89.6 | -0.129 | 104
AK9 (GeneID 221264) | 5 | -0.853 | 64.9 | -0.765 | 88.7
AK9 (GeneID 221264) | 6 | -0.573 | 70.5 | 0.597 | 67.3
AK9 (GeneID 221264) | 7 | 0.941 | 101 | 0.948 | 87.6
AK9 (GeneID 221264) | 8 | 0.0241 | 82.4 | -0.303 | 99.7
AK9 (GeneID 221264) | 9 | -0.848 | 65 | -0.754 | 88.6
CCDC190 (GeneID 339512) | 1 | -0.943 | 63.1 | 0.0417 | 69.8
CCDC190 (GeneID 339512) | 2 | 0.311 | 88.1 | 3.57 | 38.5
CCDC190 (GeneID 339512) | 3 | 0.0686 | 83.3 | -0.432 | 104
MARCKSL1 (GeneID 65108) | 1 | 2.41 | 130 | 1.42 | 99.7
MARCKSL1 (GeneID 65108) | 2 | 1.17 | 105 | 0.249 | 110
MARCKSL1 (GeneID 65108) | 3 | -0.763 | 66.7 | 0.612 | 63.4
APOC4 (GeneID 346) | 1 | 0.00734 | 82 | 0.76 | 75
APOC4 (GeneID 346) | 2 | -0.796 | 66.1 | 1.08 | 55.6
APOC4 (GeneID 346) | 3 | 1.72 | 116 | 1.24 | 93.6
HSD3B1 (GeneID 3283) | 1 | 0.345 | 88.8 | 0.23 | 93.4
HSD3B1 (GeneID 3283) | 2 | -0.333 | 75.3 | -0.387 | 93.1
HSD3B1 (GeneID 3283) | 3 | -1.33 | 55.4 | -1.71 | 97
MSC (GeneID 9242) | 1 | 0.378 | 89.4 | 0.0543 | 98.5
MSC (GeneID 9242) | 2 | 1.05 | 103 | 0.962 | 89.1
MSC (GeneID 9242) | 3 | -0.436 | 73.2 | -0.911 | 104
HDAC10 (GeneID 83933) | 1 | -0.454 | 72.8 | -0.338 | 89
HDAC10 (GeneID 83933) | 2 | -0.262 | 76.7 | -0.464 | 96.8
HDAC10 (GeneID 83933) | 3 | -0.116 | 79.6 | -0.416 | 99.2
KLK7 (GeneID 5650) | 1 | -1.42 | 53.6 | -1.23 | 82.9
KLK7 (GeneID 5650) | 2 | 0.584 | 93.5 | 0.63 | 88.5
KLK7 (GeneID 5650) | 3 | 4.28 (active) | 167 | 3.36 | 77.1
DLG5 (GeneID 9231) | 1 | -0.223 | 77.5 | -0.255 | 92.6
DLG5 (GeneID 9231) | 2 | -0.22 | 77.5 | -0.425 | 96.9
DLG5 (GeneID 9231) | 3 | -0.048 | 80.9 | -0.0913 | 92.6
IBSP (GeneID 3381) | 1 | -1.29 | 56.3 | -1.5 | 93.3
IBSP (GeneID 3381) | 2 | 2.82 | 138 | 1.76 | 97.1
IBSP (GeneID 3381) | 3 | -0.272 | 76.5 | -0.881 | 108
CNOT9 (GeneID 9125) | 1 | -0.962 | 62.8 | -0.935 | 89.7
CNOT9 (GeneID 9125) | 2 | 0.658 | 95 | 0.579 | 91.1
CNOT9 (GeneID 9125) | 3 | -0.285 | 76.2 | -0.47 | 96.4
PARD6G (GeneID 84552) | 1 | -0.196 | 78 | -0.311 | 94.6
PARD6G (GeneID 84552) | 2 | -0.317 | 75.6 | -0.492 | 96.1
PARD6G (GeneID 84552) | 3 | -0.532 | 71.3 | -0.00858 | 79.9
TREX2 (GeneID 11219) | 1 | -0.713 | 67.7 | -0.552 | 87.5
TREX2 (GeneID 11219) | 2 | -0.0304 | 81.3 | -0.47 | 103
TREX2 (GeneID 11219) | 3 | -0.394 | 74.1 | 0.588 | 70.9
CCL23 (GeneID 6368) | 1 | 2.76 | 137 | 1.21 | 111
CCL23 (GeneID 6368) | 2 | 1.37 | 109 | 1.51 | 81.9
CCL23 (GeneID 6368) | 3 | 2.33 | 128 | 1.56 | 95.1
NFKBIB (GeneID 4793) | 1 | -0.0458 | 81 | -0.37 | 99.7
NFKBIB (GeneID 4793) | 2 | 1.57 | 113 | 1.5 | 85.1
NFKBIB (GeneID 4793) | 3 | 0.932 | 100 | 0.819 | 90.5
NFE2L3 (GeneID 9603) | 1 | 0.553 | 92.9 | 0.874 | 82.5
NFE2L3 (GeneID 9603) | 2 | -0.101 | 79.9 | -0.233 | 94.9
NFE2L3 (GeneID 9603) | 3 | -0.963 | 62.7 | -0.688 | 84
ATP23 (GeneID 91419) | 1 | 0.459 | 91 | -0.488 | 116
ATP23 (GeneID 91419) | 2 | 1.81 | 118 | 0.909 | 104
ATP23 (GeneID 91419) | 3 | 0.194 | 85.7 | -0.466 | 108
NEUROD2 (GeneID 4761) | 1 | 0.79 | 97.6 | 0.551 | 94.3
NEUROD2 (GeneID 4761) | 2 | -2.32 | 35.8 | -2.69 | 81.3
NEUROD2 (GeneID 4761) | 3 | 0.902 | 99.8 | 0.487 | 98.1
TANK (GeneID 10010) | 1 | -0.555 | 70.8 | 0.24 | 74.3
TANK (GeneID 10010) | 2 | 1.37 | 109 | 1.64 | 79.1
TANK (GeneID 10010) | 3 | 0.0743 | 83.4 | -0.627 | 110
MLPH (GeneID 79083) | 1 | 1.78 | 117 | 3.17 | 56.9
MLPH (GeneID 79083) | 2 | 0.126 | 84.4 | -0.424 | 105
MLPH (GeneID 79083) | 3 | -1.55 | 51.1 | -1.17 | 77.9
